From patent publication US20060040881

Chains of the proteins cited; added tags and fusions are not shown. A line that says so, or that is headed by a name, gives the form on record, which may keep a tag or linker.
Coagulation factor IX/IXa (Sus scrofa), one chain, as listed by the source, chain 1 of 2: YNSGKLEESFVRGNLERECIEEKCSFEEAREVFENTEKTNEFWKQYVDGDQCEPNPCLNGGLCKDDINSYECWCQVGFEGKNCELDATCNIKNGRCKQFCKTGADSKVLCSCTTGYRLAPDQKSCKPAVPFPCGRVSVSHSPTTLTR
Coagulation factor IX/IXa (Sus scrofa), one chain, as listed by the source, chain 2 of 2: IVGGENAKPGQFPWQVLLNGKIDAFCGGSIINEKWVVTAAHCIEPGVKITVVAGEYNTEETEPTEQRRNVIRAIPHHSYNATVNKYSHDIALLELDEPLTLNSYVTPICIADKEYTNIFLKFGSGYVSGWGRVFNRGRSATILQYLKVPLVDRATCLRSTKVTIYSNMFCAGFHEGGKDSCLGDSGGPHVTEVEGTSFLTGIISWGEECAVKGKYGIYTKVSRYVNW

Tested on: Coagulation factor IX/IXa (Sus scrofa)
Assay: inhibition of the protein
Conditions: 2'-F on all C and U, 2'-OH A and G, 3' idT, 5' cholesterol, in vivo piglets 0.5 mg/kg, ACT and APTT, less potent than PEG-Apt39, protein in an extract, protein details: endogenous factor in piglet blood, variant of AptA

AUGGGGACUAUACCGCGUAAUGCUGCCUCCCCAU [CH-AptA]
functional effect of the aptamer: active
